Source: article PMC3762332
The exact form of at least one protein or probe is not confirmed. For part of these data: Tags and fusion partners may be left off the protein sequences shown.

By UniProt entry, the sequences of proteins in these tests, tags left out. Where a name states a change or a piece, a line headed by the entry shows the natural chain unless it says otherwise.
UniProt O00716: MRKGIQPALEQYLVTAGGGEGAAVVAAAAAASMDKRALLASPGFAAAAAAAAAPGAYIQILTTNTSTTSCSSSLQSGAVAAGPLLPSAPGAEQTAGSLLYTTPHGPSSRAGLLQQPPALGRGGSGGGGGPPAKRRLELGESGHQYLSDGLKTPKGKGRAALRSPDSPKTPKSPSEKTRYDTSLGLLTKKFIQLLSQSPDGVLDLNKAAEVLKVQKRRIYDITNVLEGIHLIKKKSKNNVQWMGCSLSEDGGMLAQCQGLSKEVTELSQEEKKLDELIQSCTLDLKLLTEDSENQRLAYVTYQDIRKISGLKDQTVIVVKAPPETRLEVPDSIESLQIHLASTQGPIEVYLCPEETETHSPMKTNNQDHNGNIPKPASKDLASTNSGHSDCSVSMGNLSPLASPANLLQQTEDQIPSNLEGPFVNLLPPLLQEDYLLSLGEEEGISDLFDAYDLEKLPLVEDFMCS
UniProt P43694: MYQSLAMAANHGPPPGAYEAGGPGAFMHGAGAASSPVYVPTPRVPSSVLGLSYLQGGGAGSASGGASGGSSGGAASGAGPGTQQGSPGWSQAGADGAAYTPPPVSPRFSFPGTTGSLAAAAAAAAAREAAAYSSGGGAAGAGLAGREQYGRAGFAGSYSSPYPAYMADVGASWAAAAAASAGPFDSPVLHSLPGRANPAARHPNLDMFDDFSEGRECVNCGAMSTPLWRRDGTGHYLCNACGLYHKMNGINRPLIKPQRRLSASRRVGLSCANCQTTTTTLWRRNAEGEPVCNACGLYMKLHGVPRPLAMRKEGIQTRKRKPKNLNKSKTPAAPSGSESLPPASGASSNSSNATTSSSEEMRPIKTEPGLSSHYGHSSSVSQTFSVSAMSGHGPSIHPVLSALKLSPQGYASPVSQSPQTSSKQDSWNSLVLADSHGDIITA
UniProt P20719: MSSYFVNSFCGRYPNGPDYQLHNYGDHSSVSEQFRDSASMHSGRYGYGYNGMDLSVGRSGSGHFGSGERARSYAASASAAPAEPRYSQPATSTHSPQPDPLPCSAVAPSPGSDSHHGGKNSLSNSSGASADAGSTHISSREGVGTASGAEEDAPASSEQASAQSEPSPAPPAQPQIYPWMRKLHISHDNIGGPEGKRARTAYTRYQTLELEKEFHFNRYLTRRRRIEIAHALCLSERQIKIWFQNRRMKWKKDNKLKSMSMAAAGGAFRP
UniProt P37231: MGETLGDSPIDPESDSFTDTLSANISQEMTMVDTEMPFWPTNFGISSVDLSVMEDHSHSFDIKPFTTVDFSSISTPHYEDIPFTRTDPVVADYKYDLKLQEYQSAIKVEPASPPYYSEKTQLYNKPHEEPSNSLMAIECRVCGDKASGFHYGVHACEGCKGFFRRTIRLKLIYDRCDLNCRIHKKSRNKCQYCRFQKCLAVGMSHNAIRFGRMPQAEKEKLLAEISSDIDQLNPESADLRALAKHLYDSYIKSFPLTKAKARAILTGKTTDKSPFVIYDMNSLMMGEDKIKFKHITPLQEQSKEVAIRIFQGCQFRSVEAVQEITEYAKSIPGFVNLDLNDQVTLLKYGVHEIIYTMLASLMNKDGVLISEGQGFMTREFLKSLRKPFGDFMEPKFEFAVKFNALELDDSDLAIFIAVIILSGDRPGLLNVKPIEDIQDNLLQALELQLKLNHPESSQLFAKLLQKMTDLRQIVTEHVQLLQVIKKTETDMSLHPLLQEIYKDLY
UniProt P19793: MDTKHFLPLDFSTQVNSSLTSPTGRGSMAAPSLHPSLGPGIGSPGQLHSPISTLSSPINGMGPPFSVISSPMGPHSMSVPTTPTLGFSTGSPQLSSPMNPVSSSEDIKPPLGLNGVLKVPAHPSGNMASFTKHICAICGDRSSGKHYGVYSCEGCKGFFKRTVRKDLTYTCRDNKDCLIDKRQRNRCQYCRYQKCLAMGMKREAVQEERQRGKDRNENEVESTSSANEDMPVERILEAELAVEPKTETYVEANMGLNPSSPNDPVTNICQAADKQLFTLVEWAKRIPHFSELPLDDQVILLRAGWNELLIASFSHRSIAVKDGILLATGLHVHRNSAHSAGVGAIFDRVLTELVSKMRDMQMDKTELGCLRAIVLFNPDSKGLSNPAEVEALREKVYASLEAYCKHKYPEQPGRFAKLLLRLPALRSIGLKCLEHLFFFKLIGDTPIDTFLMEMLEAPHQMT
UniProt Q8NC26: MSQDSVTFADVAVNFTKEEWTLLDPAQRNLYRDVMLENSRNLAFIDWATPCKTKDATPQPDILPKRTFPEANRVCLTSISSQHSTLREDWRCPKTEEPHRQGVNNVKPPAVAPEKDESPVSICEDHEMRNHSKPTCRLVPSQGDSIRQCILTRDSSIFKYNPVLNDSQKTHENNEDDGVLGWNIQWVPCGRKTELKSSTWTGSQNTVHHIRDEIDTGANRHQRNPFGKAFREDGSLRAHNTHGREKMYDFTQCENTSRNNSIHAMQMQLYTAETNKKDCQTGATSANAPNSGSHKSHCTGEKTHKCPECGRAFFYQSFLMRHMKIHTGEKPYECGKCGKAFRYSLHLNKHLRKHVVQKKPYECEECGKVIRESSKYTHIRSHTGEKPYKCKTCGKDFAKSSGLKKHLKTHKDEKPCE
UniProt Q9BWM5: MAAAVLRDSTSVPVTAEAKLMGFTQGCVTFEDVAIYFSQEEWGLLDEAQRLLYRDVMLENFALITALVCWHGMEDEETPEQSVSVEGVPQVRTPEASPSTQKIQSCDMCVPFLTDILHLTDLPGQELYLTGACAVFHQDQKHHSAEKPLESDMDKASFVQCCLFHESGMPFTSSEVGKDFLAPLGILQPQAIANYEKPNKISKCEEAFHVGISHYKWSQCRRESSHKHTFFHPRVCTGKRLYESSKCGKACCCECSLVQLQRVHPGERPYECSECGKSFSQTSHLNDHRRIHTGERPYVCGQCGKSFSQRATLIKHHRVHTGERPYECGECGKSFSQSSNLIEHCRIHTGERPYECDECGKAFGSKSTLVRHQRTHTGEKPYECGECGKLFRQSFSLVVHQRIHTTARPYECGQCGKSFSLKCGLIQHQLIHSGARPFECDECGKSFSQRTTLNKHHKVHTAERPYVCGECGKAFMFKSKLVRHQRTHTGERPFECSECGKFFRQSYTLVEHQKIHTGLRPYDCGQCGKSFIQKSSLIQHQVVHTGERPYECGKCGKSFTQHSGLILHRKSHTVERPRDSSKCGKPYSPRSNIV
UniProt P05549: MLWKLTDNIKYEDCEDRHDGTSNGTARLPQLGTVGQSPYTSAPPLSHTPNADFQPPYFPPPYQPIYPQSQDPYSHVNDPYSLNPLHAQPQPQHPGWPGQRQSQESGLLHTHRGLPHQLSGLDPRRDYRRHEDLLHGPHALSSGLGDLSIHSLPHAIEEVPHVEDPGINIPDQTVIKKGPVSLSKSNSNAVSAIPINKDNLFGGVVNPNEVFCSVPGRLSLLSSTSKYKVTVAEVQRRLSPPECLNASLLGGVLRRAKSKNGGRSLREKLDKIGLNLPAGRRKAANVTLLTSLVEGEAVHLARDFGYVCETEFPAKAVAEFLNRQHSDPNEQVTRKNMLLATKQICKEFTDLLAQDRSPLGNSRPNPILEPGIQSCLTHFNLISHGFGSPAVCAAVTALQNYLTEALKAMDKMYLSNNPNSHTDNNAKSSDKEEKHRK
UniProt Q9Y2L8: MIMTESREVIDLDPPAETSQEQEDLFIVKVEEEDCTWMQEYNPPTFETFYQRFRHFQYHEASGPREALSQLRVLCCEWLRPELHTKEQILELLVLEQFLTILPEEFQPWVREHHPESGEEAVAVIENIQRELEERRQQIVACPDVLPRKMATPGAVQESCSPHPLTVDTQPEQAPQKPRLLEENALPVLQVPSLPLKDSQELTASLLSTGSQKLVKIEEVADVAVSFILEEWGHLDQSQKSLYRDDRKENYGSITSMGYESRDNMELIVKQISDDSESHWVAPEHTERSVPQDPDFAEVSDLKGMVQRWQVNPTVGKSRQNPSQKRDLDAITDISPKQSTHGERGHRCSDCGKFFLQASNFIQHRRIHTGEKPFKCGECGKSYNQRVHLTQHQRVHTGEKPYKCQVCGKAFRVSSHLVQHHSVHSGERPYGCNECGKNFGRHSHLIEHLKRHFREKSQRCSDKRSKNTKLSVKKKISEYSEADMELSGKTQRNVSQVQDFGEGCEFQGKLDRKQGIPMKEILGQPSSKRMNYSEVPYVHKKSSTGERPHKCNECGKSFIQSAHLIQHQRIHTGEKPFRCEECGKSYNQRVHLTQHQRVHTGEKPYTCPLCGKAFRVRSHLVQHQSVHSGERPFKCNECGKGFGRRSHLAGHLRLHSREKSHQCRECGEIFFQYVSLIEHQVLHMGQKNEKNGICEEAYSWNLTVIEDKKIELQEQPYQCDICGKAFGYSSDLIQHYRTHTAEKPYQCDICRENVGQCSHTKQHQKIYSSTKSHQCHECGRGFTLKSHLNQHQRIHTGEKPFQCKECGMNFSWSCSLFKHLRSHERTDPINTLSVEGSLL
UniProt Q8IW36: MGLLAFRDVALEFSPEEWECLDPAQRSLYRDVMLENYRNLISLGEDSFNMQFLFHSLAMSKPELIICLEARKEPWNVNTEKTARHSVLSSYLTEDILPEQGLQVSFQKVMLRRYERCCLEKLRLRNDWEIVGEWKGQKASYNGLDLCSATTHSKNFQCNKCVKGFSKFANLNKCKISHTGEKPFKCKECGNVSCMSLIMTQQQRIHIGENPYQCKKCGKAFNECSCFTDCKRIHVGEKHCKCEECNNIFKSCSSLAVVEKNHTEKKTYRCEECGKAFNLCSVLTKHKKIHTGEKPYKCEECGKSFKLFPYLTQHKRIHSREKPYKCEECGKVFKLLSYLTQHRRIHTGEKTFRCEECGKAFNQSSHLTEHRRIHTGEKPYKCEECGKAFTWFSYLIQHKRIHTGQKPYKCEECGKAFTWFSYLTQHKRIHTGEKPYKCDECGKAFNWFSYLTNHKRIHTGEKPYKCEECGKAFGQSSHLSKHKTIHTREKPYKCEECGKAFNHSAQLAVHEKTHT
UniProt Q15583: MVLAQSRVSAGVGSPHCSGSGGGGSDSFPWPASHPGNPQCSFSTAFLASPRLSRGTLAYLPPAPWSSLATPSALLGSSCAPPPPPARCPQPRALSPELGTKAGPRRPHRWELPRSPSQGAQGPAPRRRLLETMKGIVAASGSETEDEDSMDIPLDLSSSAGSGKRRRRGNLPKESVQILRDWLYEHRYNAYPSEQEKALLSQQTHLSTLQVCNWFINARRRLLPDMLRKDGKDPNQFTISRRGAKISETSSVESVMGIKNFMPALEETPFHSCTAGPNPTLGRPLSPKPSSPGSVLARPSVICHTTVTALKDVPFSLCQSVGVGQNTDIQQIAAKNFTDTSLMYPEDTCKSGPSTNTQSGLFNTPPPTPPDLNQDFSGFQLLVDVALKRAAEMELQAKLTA
UniProt Q8TAF7: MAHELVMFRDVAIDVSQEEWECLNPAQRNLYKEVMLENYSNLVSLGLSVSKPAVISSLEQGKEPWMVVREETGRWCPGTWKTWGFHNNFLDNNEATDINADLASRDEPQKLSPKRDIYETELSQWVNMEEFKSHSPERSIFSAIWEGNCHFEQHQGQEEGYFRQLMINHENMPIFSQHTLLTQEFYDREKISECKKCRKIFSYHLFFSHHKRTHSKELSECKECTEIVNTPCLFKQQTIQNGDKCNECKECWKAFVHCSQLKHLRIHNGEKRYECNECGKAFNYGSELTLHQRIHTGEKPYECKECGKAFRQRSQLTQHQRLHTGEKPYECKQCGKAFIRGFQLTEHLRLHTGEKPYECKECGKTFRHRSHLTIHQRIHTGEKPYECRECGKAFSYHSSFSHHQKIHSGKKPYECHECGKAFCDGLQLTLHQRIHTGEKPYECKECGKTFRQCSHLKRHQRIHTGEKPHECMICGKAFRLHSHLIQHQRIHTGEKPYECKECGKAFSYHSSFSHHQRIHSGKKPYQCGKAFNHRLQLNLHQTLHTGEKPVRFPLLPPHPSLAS

Key:
Test in all cases: protein microarray
Conditions in all cases: 10-fold cold unmethylated competitor; 5mC at CpG (SssI, both strands); recombinant protein; protein details: GST (N-terminal); label: Cy5
BCL3 (Homo sapiens) = molecular target: T1, BCL3 (Homo sapiens) (UniProt P20749)
T1 sequence (looked up, limits assumed): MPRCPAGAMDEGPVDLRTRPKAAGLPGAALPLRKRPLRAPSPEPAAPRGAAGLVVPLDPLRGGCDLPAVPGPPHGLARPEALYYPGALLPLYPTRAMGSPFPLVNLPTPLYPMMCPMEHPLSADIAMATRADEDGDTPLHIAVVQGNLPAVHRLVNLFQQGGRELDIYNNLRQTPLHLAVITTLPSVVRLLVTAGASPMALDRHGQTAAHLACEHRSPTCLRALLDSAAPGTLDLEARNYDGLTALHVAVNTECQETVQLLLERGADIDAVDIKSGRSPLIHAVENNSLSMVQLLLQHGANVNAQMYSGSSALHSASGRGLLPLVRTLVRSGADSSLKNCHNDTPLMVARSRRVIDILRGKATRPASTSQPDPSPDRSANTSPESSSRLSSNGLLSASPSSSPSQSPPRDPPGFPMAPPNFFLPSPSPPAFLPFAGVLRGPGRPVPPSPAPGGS

E2F3 (Homo sapiens) = E2F3 (Homo sapiens) (UniProt O00716)
GATA4 (Homo sapiens) = GATA4 (Homo sapiens) (UniProt P43694)
HOXA5 (Homo sapiens) = HOXA5 (Homo sapiens) (UniProt P20719)
HOXA9 (Homo sapiens) = HOXA9 (Homo sapiens) (UniProt P31269)
NRF1 (Homo sapiens) = molecular target: T2, NRF1 (Homo sapiens) (UniProt Q16656)
T2 sequence (looked up, limits assumed): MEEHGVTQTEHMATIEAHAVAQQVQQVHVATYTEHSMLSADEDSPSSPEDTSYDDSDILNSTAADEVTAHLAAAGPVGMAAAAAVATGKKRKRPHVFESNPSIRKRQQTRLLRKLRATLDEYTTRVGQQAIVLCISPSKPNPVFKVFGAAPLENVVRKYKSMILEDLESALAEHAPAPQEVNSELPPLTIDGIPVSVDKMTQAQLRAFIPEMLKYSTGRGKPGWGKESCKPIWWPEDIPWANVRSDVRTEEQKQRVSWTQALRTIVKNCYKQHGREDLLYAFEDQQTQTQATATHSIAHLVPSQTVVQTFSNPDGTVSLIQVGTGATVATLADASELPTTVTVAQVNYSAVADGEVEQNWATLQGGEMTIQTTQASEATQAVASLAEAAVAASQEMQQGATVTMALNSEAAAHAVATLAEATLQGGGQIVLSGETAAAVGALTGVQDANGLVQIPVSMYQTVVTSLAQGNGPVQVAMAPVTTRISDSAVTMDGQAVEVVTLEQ

PPARG (Homo sapiens) = PPARG (Homo sapiens) (UniProt P37231)
RNF138 (Homo sapiens) = molecular target: T3, RNF138 (Homo sapiens) (UniProt Q8WVD3)
T3 sequence (looked up, limits assumed): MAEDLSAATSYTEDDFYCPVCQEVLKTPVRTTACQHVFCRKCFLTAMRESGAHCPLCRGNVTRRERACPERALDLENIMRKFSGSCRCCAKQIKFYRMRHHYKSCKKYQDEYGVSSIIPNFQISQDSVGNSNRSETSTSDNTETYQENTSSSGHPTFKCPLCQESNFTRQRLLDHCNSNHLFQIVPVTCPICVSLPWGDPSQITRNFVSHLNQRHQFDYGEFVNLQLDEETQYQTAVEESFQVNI

RXRA (Homo sapiens) = RXRA (Homo sapiens) (UniProt P19793)
SCAPER (Homo sapiens) = molecular target: T4, SCAPER (Homo sapiens) (UniProt Q9BY12)
T4 sequence (looked up, limits assumed): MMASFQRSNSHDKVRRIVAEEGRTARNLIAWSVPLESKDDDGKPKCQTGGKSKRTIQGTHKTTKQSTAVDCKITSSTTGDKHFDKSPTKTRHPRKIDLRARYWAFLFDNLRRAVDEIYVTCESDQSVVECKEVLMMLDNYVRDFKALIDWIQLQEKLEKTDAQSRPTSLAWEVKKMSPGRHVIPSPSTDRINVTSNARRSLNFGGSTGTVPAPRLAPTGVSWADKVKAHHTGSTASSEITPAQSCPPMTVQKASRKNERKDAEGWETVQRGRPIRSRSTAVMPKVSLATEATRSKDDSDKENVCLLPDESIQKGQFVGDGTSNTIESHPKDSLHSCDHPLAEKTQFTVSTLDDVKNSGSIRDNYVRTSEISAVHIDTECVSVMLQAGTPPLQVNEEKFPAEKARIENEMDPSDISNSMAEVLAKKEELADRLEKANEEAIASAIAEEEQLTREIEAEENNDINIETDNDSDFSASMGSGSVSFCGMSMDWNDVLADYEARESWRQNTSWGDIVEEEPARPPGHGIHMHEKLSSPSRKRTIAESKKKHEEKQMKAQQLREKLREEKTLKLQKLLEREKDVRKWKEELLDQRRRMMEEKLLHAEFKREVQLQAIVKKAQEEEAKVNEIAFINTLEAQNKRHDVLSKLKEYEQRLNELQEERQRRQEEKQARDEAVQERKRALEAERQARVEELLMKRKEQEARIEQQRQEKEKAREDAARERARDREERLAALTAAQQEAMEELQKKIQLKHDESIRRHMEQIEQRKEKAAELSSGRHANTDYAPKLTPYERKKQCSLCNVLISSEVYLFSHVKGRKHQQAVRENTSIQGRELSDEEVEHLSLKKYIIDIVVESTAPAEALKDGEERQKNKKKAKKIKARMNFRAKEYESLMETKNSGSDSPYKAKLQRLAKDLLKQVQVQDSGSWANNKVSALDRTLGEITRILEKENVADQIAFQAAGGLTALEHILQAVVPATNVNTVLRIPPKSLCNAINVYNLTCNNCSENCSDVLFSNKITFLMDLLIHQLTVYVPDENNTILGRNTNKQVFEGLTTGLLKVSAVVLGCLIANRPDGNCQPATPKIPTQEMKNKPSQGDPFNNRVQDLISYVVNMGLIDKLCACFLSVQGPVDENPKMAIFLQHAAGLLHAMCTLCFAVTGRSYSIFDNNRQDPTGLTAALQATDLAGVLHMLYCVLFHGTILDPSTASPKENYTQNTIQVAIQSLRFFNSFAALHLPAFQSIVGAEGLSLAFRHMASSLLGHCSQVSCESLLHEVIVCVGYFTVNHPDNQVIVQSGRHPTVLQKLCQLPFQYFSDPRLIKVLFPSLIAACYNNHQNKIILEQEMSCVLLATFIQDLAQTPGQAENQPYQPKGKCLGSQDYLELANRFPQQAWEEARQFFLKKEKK

ZNF114 (Homo sapiens) = ZNF114 (Homo sapiens) (UniProt Q8NC26)
ZNF416 (Homo sapiens) = ZNF416 (Homo sapiens) (UniProt Q9BWM5)
CALR (Homo sapiens) = molecular target: T5, CALR (Homo sapiens) (UniProt P27797)
T5 sequence (looked up, limits assumed): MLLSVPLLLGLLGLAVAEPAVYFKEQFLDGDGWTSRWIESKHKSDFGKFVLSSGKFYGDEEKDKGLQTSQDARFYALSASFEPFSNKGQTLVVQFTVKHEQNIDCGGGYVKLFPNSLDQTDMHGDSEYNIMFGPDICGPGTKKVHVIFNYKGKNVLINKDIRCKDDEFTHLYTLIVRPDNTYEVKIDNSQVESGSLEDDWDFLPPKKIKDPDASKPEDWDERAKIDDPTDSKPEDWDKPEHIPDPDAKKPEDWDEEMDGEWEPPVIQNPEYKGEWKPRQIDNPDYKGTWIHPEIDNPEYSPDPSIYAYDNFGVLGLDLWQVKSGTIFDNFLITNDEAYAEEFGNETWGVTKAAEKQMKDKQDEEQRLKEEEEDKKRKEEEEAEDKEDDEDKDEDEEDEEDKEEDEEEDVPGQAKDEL

TFAP2A (Homo sapiens) = TFAP2A (Homo sapiens) (UniProt P05549)
ZKSCAN5 (Homo sapiens) = ZKSCAN5 (Homo sapiens) (UniProt Q9Y2L8)
ZNF695 (Homo sapiens) = ZNF695 (Homo sapiens) (UniProt Q8IW36)
KEAP1 (Homo sapiens) = KEAP1 (Homo sapiens) (UniProt Q14145)
TGIF1 (Homo sapiens) = TGIF1 (Homo sapiens) (UniProt Q15583)
ZNF461 (Homo sapiens) = ZNF461 (Homo sapiens) (UniProt Q8TAF7)
CERS4 (Homo sapiens) = molecular target: T6, CERS4 (Homo sapiens) (UniProt Q9HA82)
T6 sequence (looked up, limits assumed): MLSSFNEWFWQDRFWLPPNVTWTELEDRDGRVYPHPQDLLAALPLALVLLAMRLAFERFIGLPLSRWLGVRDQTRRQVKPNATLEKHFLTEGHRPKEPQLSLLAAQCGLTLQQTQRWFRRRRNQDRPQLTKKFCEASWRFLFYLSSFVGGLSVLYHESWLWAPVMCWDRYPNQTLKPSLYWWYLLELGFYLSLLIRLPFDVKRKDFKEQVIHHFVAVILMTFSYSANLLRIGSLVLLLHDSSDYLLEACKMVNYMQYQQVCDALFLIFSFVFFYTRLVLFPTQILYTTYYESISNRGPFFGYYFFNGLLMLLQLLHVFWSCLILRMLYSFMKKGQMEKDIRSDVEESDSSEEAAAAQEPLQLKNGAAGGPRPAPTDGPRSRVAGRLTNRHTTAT

Measured: binding result

AAGATGGCGAAAAAGATGGCGCCCTATAGTGAGTGCTATTA (double strand) [M74]
not listed: CALR (Homo sapiens) | TFAP2A (Homo sapiens) | ZKSCAN5 (Homo sapiens) | ZNF695 (Homo sapiens) | KEAP1 (Homo sapiens) | TGIF1 (Homo sapiens) | ZNF461 (Homo sapiens) | CERS4 (Homo sapiens)
binds: all other assays above

GGGAAACCGAAACAAAGGGAAACCGAAACCCCTATAGTGAGTGCTATTA (double strand) [M18]
binds: CALR (Homo sapiens) | E2F3 (Homo sapiens) | GATA4 (Homo sapiens) | HOXA5 (Homo sapiens) | RXRA (Homo sapiens) | SCAPER (Homo sapiens) | TFAP2A (Homo sapiens) | ZKSCAN5 (Homo sapiens) | ZNF114 (Homo sapiens) | ZNF416 (Homo sapiens) | ZNF695 (Homo sapiens)

AAATGGCGAAAAAATGGCGCCCTATAGTGAGTGCTATTA (double strand) [M96]
binds: GATA4 (Homo sapiens) | HOXA5 (Homo sapiens) | KEAP1 (Homo sapiens) | NRF1 (Homo sapiens) | PPARG (Homo sapiens) | RNF138 (Homo sapiens) | RXRA (Homo sapiens) | SCAPER (Homo sapiens) | ZNF114 (Homo sapiens) | ZNF416 (Homo sapiens)

CCGGACATAACGAAACCGGACATAACGCCCTATAGTGAGTGCTATTA (double strand) [M369]
binds: HOXA5 (Homo sapiens) | RXRA (Homo sapiens) | SCAPER (Homo sapiens) | TGIF1 (Homo sapiens) | ZKSCAN5 (Homo sapiens) | ZNF114 (Homo sapiens) | ZNF461 (Homo sapiens)

CAAACGCTACCCCAAACGCTACCCTATAGTGAGTGCTATTA (double strand) [M279]
binds: CERS4 (Homo sapiens) | E2F3 (Homo sapiens) | GATA4 (Homo sapiens) | TFAP2A (Homo sapiens) | ZKSCAN5 (Homo sapiens) | ZNF114 (Homo sapiens) | ZNF416 (Homo sapiens) | ZNF695 (Homo sapiens)

TCGCTGTTGAAATCGCTGTTGCCCTATAGTGAGTGCTATTA (double strand) [M283]
binds: CERS4 (Homo sapiens) | E2F3 (Homo sapiens) | ZKSCAN5 (Homo sapiens) | ZNF114 (Homo sapiens) | ZNF416 (Homo sapiens) | ZNF695 (Homo sapiens)

GACGAGAAGGGGACGAGAACCCTATAGTGAGTGCTATTA (double strand) [M422]
binds: HOXA5 (Homo sapiens) | RNF138 (Homo sapiens) | TGIF1 (Homo sapiens) | ZNF114 (Homo sapiens) | ZNF461 (Homo sapiens)

CACGACGCTTTCACGACGCCCCTATAGTGAGTGCTATTA (double strand) [M435]
binds: HOXA5 (Homo sapiens) | RNF138 (Homo sapiens) | RXRA (Homo sapiens) | TGIF1 (Homo sapiens) | ZNF114 (Homo sapiens) | ZNF416 (Homo sapiens) | ZNF461 (Homo sapiens)
